The target of this experiment is Cy3-labeled CDKCONF5 biosensor (CDKCONF5 (C157 C190 C269) : C53S/C83S/C94S/C117S/C290S) (human) (UniProt Q00535). Nature of the experiment: other fluorescence titration; CDKCONF5-Cy3 incubated with 400 nM 6His-p25 and/or 4 uM quinazolines JMV5800 and JMV5884; both purified.

Chains of the proteins cited; added tags and fusions are not shown. Residues count along the entry.
UniProt Q15078, residues 99-307: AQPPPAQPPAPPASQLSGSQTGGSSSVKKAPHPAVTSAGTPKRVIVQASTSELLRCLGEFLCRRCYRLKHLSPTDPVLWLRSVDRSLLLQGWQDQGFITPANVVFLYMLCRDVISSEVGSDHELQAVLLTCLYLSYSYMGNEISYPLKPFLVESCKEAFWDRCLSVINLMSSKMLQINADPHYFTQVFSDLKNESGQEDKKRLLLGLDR

For 1 substance, binding results are on record in article PMC7466635, “Identification of Quinazolinone Analogs Targeting CDK5 Kinase Activity and Glioblastoma Cell Proliferation” (Frontiers in Chemistry, 2020).

No constants are given. Whether binding was seen depends on the method and setting. Some results given as binding are weak or reduced against the parent protein; the word gives no strength.

Regarding “recombinant 6His-p25 (from UniProt Q15078 99-307) (domain or fragment)”, the binding entry was “binds”.
